The target in experiment [1] is Ste50-mCherry (budding yeast (S288C background)) (UniProt P25344). Kind of experiment: two-dimensional photon counting histogram (2dPCH); live yeast cells with Ste11-GFP and Ste50-mCherry, cytosolic pool; 50 µs bins; two-component fit; cycling cells, also after α-factor or NaCl.
Experiment [2] concerns the target Ste50^L73A-L75A-mCherry (budding yeast (S288C background)) (UniProt P25344). In words: two-dimensional photon counting histogram (2dPCH); live ste50Δ yeast cells with Ste11-GFP and Ste50^L73A-L75A-mCherry as the only Ste50, cytosolic pool; 50 µs bins; two-species fit.
Experiment [3] deals with Ste50^L73A-L75A-GFP (budding yeast (S288C background)) (UniProt P25344). Kind of experiment: photon counting histogram (1dPCH); live yeast cells, cytosolic pool; 488 nm, 50 µs bins; average brightness compared with GFP, GFP-GFP and GFP-GFP-GFP controls; cycling cells, also after α-factor or NaCl.

Results are given in words; binding and its absence hold for the method and conditions named. Some binding calls cover weakened binding; strength is not graded here. For part of these data: Tags and fused reporters may be left off the sequences shown.

B1: Ste50-GFP (natural protein, budding yeast (S288C background), UniProt P25344 1-346, looked up)
chain: MEDGKQAINEGSNDASPDLDVNGTILMNNEDFSQWSVDDVITWCISTLEVEETDPLCQRLRENDIVGDLLPELCLQDCQDLCDGDLNKAIKFKILINKMRDSKLEWKDDKTQEDMITVLKNLYTTTSAKLQEFQSQYTRLRMDVLDVMKTSSSSSPINTHGVSTTVPSSNNTIIPSSDGVSLSQTDYFDTVHNRQSPSRRESPVTVFRQPSLSHSKSLHKDSKNKVPQISTNQSHPSAVSTANTPGPSPNEALKQLRASKEDSCERILKNAMKRHNLADQDWRQYVLVICYGDQERLLELNEKPVIIFKNLKQQGLHPAIMLRRRGDFEEVAMMNGSDNVTPGGRL
notes: Ste50, SAM domain protein, budding yeast; tagged at the chromosomal locus; source: expressed from its chromosomal locus in live yeast cells (S288C background); not shown: GFP, C-terminal, kept
Consider B1, for which the binding result in experiment [1] was “binds”.

B2: Ste50^L73A-L75A-mCherry (protein, UniProt P25344 1-346)
chain: MEDGKQAINEGSNDASPDLDVNGTILMNNEDFSQWSVDDVITWCISTLEVEETDPLCQRLRENDIVGDLLPEACAQDCQDLCDGDLNKAIKFKILINKMRDSKLEWKDDKTQEDMITVLKNLYTTTSAKLQEFQSQYTRLRMDVLDVMKTSSSSSPINTHGVSTTVPSSNNTIIPSSDGVSLSQTDYFDTVHNRQSPSRRESPVTVFRQPSLSHSKSLHKDSKNKVPQISTNQSHPSAVSTANTPGPSPNEALKQLRASKEDSCERILKNAMKRHNLADQDWRQYVLVICYGDQERLLELNEKPVIIFKNLKQQGLHPAIMLRRRGDFEEVAMMNGSDNVTPGGRL
As for B2, the binding entry in experiment [2] is given as “no binding”.

B3: Ste50^L73A-L75A-GFP (protein, UniProt P25344 1-346)
chain: MEDGKQAINEGSNDASPDLDVNGTILMNNEDFSQWSVDDVITWCISTLEVEETDPLCQRLRENDIVGDLLPEACAQDCQDLCDGDLNKAIKFKILINKMRDSKLEWKDDKTQEDMITVLKNLYTTTSAKLQEFQSQYTRLRMDVLDVMKTSSSSSPINTHGVSTTVPSSNNTIIPSSDGVSLSQTDYFDTVHNRQSPSRRESPVTVFRQPSLSHSKSLHKDSKNKVPQISTNQSHPSAVSTANTPGPSPNEALKQLRASKEDSCERILKNAMKRHNLADQDWRQYVLVICYGDQERLLELNEKPVIIFKNLKQQGLHPAIMLRRRGDFEEVAMMNGSDNVTPGGRL
As for B3, the binding result in experiment [3] is reported as “no binding”.

Source of the values: publication PMC2291563, “SAM Domain-Based Protein Oligomerization Observed by Live-Cell Fluorescence Fluctuation Spectroscopy” (PLoS ONE, 2008).
